These are yes or no findings as the source states them, for the method shown. For some assays here: Binding seen in cells or lysates may run through a third protein. Some binding calls cover weakened binding; strength is not graded here.
Tests used:
[1] = target: ORA59 with N-terminal 60 amino acids deleted (ORA59Δ1-60), fused to the GAL4 activation domain (Arabidopsis thaliana) (UniProt Q9LND1); test: two-hybrid; direct re-test; yeast strain AH109 co-transformed with pGADT7 and pGBKT7 constructs; growth on SD/-Ade-His-Leu-Trp and α-galactosidase activity with 40 mg/L X-α-Gal
[2] = target: ORA59 fused with the N-terminal part of YFP (ORA59^NE) (Arabidopsis thaliana) (UniProt Q9LND1); test: split reporter; BiFC with split YFP (SPYNE, SPYCE) in transfected Arabidopsis protoplasts, 20-24 h expression; confocal microscopy

The chains behind the UniProt entries cited, without tags or fusion partners. Where a name states a change or a piece, a line headed by the entry shows the natural chain unless it says otherwise. A line that says so, or that is headed by a name, gives the form on record, which may keep a tag or linker. Residues count along the entry.
UniProt Q9LND1: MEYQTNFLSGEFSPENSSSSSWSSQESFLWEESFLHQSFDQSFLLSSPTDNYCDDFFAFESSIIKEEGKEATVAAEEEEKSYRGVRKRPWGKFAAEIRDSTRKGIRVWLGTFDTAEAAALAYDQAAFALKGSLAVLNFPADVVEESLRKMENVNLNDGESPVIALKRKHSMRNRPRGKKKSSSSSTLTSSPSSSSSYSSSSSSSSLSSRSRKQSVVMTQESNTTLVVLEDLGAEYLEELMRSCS
ORA59 with N-terminal 60 amino acids deleted (ORA59Δ1-60), fused to the GAL4 activation domain: residues 61-244 of Q9LND1
UniProt P42736: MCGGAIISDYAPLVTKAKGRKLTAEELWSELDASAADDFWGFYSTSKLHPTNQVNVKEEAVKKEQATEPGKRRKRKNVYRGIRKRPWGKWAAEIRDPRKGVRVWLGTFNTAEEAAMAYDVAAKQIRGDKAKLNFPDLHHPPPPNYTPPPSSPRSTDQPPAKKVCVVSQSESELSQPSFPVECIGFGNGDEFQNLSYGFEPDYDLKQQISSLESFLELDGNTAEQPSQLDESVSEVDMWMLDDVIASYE

Row | binding [1] | binding [2] | Substance
1 | binds | – | full-length RAP2.3 fused to the GAL4 DNA-binding domain (from UniProt P42736 1-248)
2 | – | binds | RAP2.3 fused with the C-terminal part of YFP (RAP2.3^CE) (from UniProt P42736 1-248)

— publication PMC6254012
